For six molecules, binding results are on record in publication PMC9937023.

In assay [1] the target is T1, Stat92E, HA-tagged (pAC5.1-Stat92E-HA) (Drosophila melanogaster) (UniProt Q24151).
T1 sequence: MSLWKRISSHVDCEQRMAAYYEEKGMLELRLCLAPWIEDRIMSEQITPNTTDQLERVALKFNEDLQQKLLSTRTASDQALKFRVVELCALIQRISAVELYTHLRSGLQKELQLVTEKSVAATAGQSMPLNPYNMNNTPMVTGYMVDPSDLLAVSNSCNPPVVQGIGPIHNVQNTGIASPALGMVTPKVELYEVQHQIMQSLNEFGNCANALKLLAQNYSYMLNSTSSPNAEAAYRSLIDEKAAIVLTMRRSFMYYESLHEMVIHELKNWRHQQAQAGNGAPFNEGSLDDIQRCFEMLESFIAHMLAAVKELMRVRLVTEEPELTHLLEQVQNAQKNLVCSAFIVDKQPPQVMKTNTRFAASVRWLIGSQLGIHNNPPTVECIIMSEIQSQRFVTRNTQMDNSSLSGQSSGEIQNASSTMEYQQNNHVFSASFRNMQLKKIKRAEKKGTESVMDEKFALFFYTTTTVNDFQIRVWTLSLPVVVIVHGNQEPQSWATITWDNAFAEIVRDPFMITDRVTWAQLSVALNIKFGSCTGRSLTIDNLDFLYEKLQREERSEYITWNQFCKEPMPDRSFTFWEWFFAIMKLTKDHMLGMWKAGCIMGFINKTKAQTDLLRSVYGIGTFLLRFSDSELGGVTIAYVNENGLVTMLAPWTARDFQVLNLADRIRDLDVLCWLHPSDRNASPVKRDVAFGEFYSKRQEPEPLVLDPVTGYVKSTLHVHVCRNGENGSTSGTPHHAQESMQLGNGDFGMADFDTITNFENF
Description: co-IP; S2 cells co-transfected with Stat92E-HA and Flag-tagged domains of Ect4; lysates (150 mM NaCl, 25 mM Tris-HCl pH 7.4, 5% glycerol, 1% NP-40, 1 mM EDTA) incubated overnight at 4°C with anti-HA affinity gel; Western blot. A general note: Immunoblotting shows a protein as a band on a membrane.

Assay [2] deals with Ectoderm-expressed 4 (Ect4), Flag-tagged (pAC5.1-Ect4-Flag) (Drosophila melanogaster). Kind of assay: co-IP; S2 cells co-transfected with differentially tagged Ect4 and JAK/STAT components; lysates (150 mM NaCl, 25 mM Tris-HCl pH 7.4, 5% glycerol, 1% NP-40, 1 mM EDTA) incubated overnight at 4°C with anti-Flag M2 affinity gel; Western blot.

No constants are given. Whether binding was seen depends on the method and setting. Binding seen in cells or lysates may run through a third protein. Binding calls can cover weak binding; strength is not graded here. Tags and fused reporters may be left off the sequences shown.

Regarding “Ect4 ARM domain (aa 318-701), Flag-tagged (Drosophila melanogaster) (domain or fragment)”, the binding entry in assay [1] is reported as “no binding”.
The same measure, in the same setting: the entry for “Ect4 SAM domain (aa 680-826), Flag-tagged (Drosophila melanogaster) (domain or fragment)” is “no binding”; for “Ect4 TIR domain (aa 829-1360), Flag-tagged (Drosophila melanogaster) (domain or fragment)” it is “binds”.

B1: Hopscotch (Hop), V5-tagged (pAC5.1-hop-V5) (enzyme, UniProt Q24592 1-1177)
chain: MALANGGEDRMDDSSSGRTSLADSASLTNSSLRSGTSSQSIHTNDGTIRVFNFTTGEFERFHPNMLCEEICNTMCRQLGIAPIAQLLYGIREHSTSRRPSPLVRLDLTWCLPGERLNCQLVYCFRMRFRVPELDSQLELIDGRSHKFLYRQMRYDMRTEQIPEIRYPEHKDKSTGLAVMDMLIDDQEQSEDQQAMRSIEKLYKLYLPPSLWRAHSFFVGSKIREVFRSLKANSLSVERLKWHYVHQVSHLAPTYMTEQFTCTVQYLPNEEVARGSGPIGTSLAHSTSTLASSGSTNTLSTLTTNTNSVALGGSGKKAKRRSTSGGIDVYVRVFPHDSLEPGLKVARVTSEATLKWILVGAVEGIFMISKINDTSVRLEIVGLPKGYEMQFQTEKEMKSFISYLGIYIRLSSKWMQDLCHSYRTPSLEELSSLHCHGPIGGAYSLMKLHENGDKCGSYIVRECDREYNIYYIDINTKIMAKKTDQERCKTETFRIVRKDSQWKLSYNNGEHVLNSLHEVAHIIQADSPDRYRIPASKYDKPPLLLLLLPKNLKAKKTDLQLSEAELQRRNPQIFNPRTDLQWYPDSISLSDDGMMFTMRGDWIQQSPVKDVSVTMKMLKSDGNFMEFFRLAQTWSLIQSPQFLKLYGLTLADPYTMVMEYSRYGPLNKFLHSMPNVTLHCLLDLMHGLVRGMHYLEDNKIIHNYIRCSNLYVTKYDPNSYVLDAKISDPGYPRPYRESDSPWIPVKYYRNLQAAKTDQFAQLWAFATTIYEIFSRCKEDLSTLRQEQLLRQKNLDGNILKMLDQDICPAPIFETIMDGWSDDETKRFSHHDIFSRLNTIKAEILPNYMPPPEIATNGTGDETVIDRSDIPFLPFPRSNMLMVIPLTSECRVIYNMENMIGRGHYGTVYKGHLEFNDKDQPREQVAIKMLNTMQVSTDFHREIGIMRTLSHPNIVKFKYWAEKSHCIIMEYLQSGSFDIYLRFTAPNLNNPRLVSFALDIANGMKYLSDMGLIHRDLAARNILVDHNGDGDCVKISDFGLAQFANSDGYYYAKSKRDIPIRWYSPEAISTCRFSSYSDVWSYGVTLFEMFSRGEEPNLVPIQTSQEDFLNRLQSGERLNRPASCPDFIYDLMQLCWHATPRSRPSFATIVDIITREVATKVTHPTDGHQSPPNQPTDAE
For B1, the binding entry in assay [2] was “no binding”.

B2: Stat92E, HA-tagged (pAC5.1-Stat92E-HA) (protein, UniProt Q24151 1-761)
chain: MSLWKRISSHVDCEQRMAAYYEEKGMLELRLCLAPWIEDRIMSEQITPNTTDQLERVALKFNEDLQQKLLSTRTASDQALKFRVVELCALIQRISAVELYTHLRSGLQKELQLVTEKSVAATAGQSMPLNPYNMNNTPMVTGYMVDPSDLLAVSNSCNPPVVQGIGPIHNVQNTGIASPALGMVTPKVELYEVQHQIMQSLNEFGNCANALKLLAQNYSYMLNSTSSPNAEAAYRSLIDEKAAIVLTMRRSFMYYESLHEMVIHELKNWRHQQAQAGNGAPFNEGSLDDIQRCFEMLESFIAHMLAAVKELMRVRLVTEEPELTHLLEQVQNAQKNLVCSAFIVDKQPPQVMKTNTRFAASVRWLIGSQLGIHNNPPTVECIIMSEIQSQRFVTRNTQMDNSSLSGQSSGEIQNASSTMEYQQNNHVFSASFRNMQLKKIKRAEKKGTESVMDEKFALFFYTTTTVNDFQIRVWTLSLPVVVIVHGNQEPQSWATITWDNAFAEIVRDPFMITDRVTWAQLSVALNIKFGSCTGRSLTIDNLDFLYEKLQREERSEYITWNQFCKEPMPDRSFTFWEWFFAIMKLTKDHMLGMWKAGCIMGFINKTKAQTDLLRSVYGIGTFLLRFSDSELGGVTIAYVNENGLVTMLAPWTARDFQVLNLADRIRDLDVLCWLHPSDRNASPVKRDVAFGEFYSKRQEPEPLVLDPVTGYVKSTLHVHVCRNGENGSTSGTPHHAQESMQLGNGDFGMADFDTITNFENF
As for B2, in assay [2], the binding result is “binds”.

B3: Domeless (Dome), V5-tagged (pAC5.1-Dome-V5) (receptor, UniProt Q9VWE0 24-1282)
chain: ILDPGWVIPSKVEQLIGGDFNLSCTLNEDYFNGKSAEDCPVEKLYFTGGGRVYRDSKHIRILNNTTILFSDTNAVEQENDYHCMCDEYVINKSKVYVGTRPLLVRDFNCLDYDFQFMVCNFTQPPNTVITKYNISYNTNNDWRYSNTLDCNFDSAPVVTCNLTDDNYKRFSETFYFRLSISNALGHETQPITINHFERLVPARPGQNLTLLNRTESSVCLSWEMPRRSNYNRGLVWQVRVTPQNFEPITRPSWRNHTLTIKDTLCLTELPFAGYNYTLRVRVRANQNNTLWSEPMIYAFATAPAPPRRPPRVTYGSFYVYSSEKAMRFYWEPLEEHELNGPDFRYSISEYRINGTAVDPGLIKVESNSAMIDHWSMSAVHHFLIRSSNSQGLSVNATPMTIGPISNRDFKVREPRNIRSVYHPTNKSYTLSWDPPSDQRELQNYTVFWCVPKPGLQSECEGSIRFAEVASGLHHFTTSPDQLLTLHMAVSANYQSHNTGLHWAICSSDKKDDLAKMEPSIDVATSTSLTVSWSERVCAVILAGYNLTYCQRSAGRPDNCTTVTIDRYTNKHVIQNLVPYTDYSVKMLMYSDSRVSKYSDELVNRTGEAAPSQPRELQLIRVTSDSVELAWKPPLLANGVVRAYEGTFRSLHDNVTDTFRVSASADELVNNEKPITYRLGNLTAFTKYEISVRARTVYPSEPSNVILFSTAIGVPSPPQLYVINNPDQSSRLDWEPPRTPAGRIDFYEISLRDNNASCLTSTILPGRNLSYVMATPRCTSHNPFQLAVRAINVEQHPQLNGADAAEGAVLLMSTNGKGCEARTDALGEEERLQFEAYAANMTAYRLYRSDWGIYGFICTPDTHSVKAMYQTIEVTVAILVLGVIFYLVYKKYRKMSDIGLVLPQGIMETMKKPIDMGGLGLGLGPDSSVSGGIVCTRVDDSPPYTPQDLPHDFSSCGSESSKLLLRTASSSGGGGCVDRDGYDDNHETGPISAVGPPTSYLAMRHGLLVQNDRERERERDREQEREREQQQQQRESEMDREQSCTNGYIKPTQMKSWGGNGPSDNDHTFSVPSTAMTAPMSQPLSQIPLSGYVPVPIPQSRFNPAPVQPFGSPAVPSAATAAAASTFFPPAHLLNMDNYVQASDLHKLKPLVAAPLSQTGGPAFAGSSPATSPPLQLPPVHAASPAAATPKMADIGYTTMEQLQLTGLIKPPLAATVGSPTHAAGGAPGGGNQHSRLQPQINGYVTPQDLNAMAHNRHVL
In the case of B3, the binding entry in assay [2] is recorded as “no binding”.
